Drawing on PubChem BioAssay AID2685 (National Center for Advancing Translational Sciences (NCATS), 2010), this text covers AC50 and cell number change for 61 molecules.

The nature of the assay: qHTS Assay for Lipid Storage Modulators in Drosophila S3 Cells.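 For cell number change: cells counted by Cell Tracker Red CMTPX staining in the red channel.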 The following applies: BODIPY lipid droplet fluorescence, 18-24 h; for cell number change: measured here: cell count max response, cells fed with added oleic acid. In a few lines: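 Laser-scanning cytometry quantifies lipid droplet accumulation (500–530 nm total intensity; droplet/cell object ratio) in oleic acid-fed (400 uM added) Drosophila S3 cells treated with a concentration series. 20 uM Triacsin C defined 100% inhibition.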
A general note: Quantitative high-throughput screening tests each substance at several concentrations.

[1] abbreviates: measured here: cell number channel AC50, cells fed with added oleic acid.
Where [2] appears, read: measured here: lipid fluorescence (Fed channel) AC50, cells fed with added oleic acid.

The other results are listed elsewhere or left out. These are further read-outs of the screen, such as a control signal, another cell line or another target. No call is given for them. Compounds called inactive in the main read-out are mostly missing here. Words in brackets tell the shape of the fitted curve; partial curves, single points and poor fits give uncertain potencies.

Turning to `CC(=O)Nc1cccc(C(=O)OCC(=O)N2CCC(c3ccccc3)=N2)c1`, the AC50 (as a rule, the midpoint of the concentration-response curve, whichever way the signal moves) under setting [1] was 2310 nM [rising, partial curve, poor fit].
As to `Cc1nc2ccc(NC(=O)[C@@H](NC(=O)c3c(F)cccc3F)C(C)C)cc2s1`, the cell number change is -8.54%. In addition, the AC50 under setting [2] is 29100 nM [falling, single point].
For `Cc1cc(-c2nnc(-c3cc4ccccc4oc3=O)o2)c(C)n1-c1ccccc1`, the cell number change was -3.27%. Also, the half-maximal activity concentration (AC50) under setting [2] was 461 nM [falling, single point].
With `Cc1cc(C)nc(SCC(=O)c2ccc3c(c2)OCCO3)n1`, the AC50 under setting [1] was 366 nM [rising, partial curve, poor fit].
On to `COc1ccc(C(=O)/C=C/c2cccs2)c(OC(=O)c2cccc([N+](=O)[O-])c2)c1`, for which the cell number change was -20%. The AC50 under setting [2] was 731 nM [falling, single point].
For `COc1ccc(N(CC(=O)O)S(C)(=O)=O)cc1OC`, the cell number change is -4.25%. The half-maximal activity concentration (AC50) under setting [2] was 1030 nM [falling, full curve].
Consider `C/[N+]([O-])=C\C1C(=O)CCCC1=O`, for which the cell number change was -26.9%. In addition, the concentration at half-maximal activity (AC50) under setting [1] was 259 nM [falling, full curve, poor fit]. The AC50 under setting [2] is 2910 nM [falling, full curve].
In the case of `O=C(Nc1nc2ccccc2n1CCOc1ccccc1)c1ccco1`, the cell number change is -30.5%. Further, the AC50 under setting [1] was 5170 nM [falling, partial curve]. The half-maximal activity concentration (AC50) under setting [2] is 9200 nM [falling, partial curve, poor fit].
Consider `COc1ccc(-c2csc(NC(=O)C3CC(=O)N(c4ccc5c(c4)OCCO5)C3)n2)cc1` (stereo not drawn), for which the cell number change is -20.9%. Moreover, the concentration at half-maximal activity (AC50) under setting [2] is 29100 nM [falling, partial curve].
Regarding `CN=C1SC(CC(=O)Nc2ccccc2F)C(=O)N1C` (stereo not drawn), the cell number change was -76.3%. Besides, under setting [1], the AC50 was 231 nM [falling, full curve].
With `CCOC(=O)c1cn2nc(SCc3ccccc3)nc2nc1C`, the cell number change is -9.71%. The concentration at half-maximal activity (AC50) under setting [2] was 29100 nM [falling, single point].
For `CCCC(=O)C1=C(O)C(C(=O)OC)C(C)(C)CC1=NCCc1ccccc1` (stereo not drawn), the cell number change was determined as 2.75%.
Regarding `CCC(C(=O)NNC(=O)c1cnccn1)c1ccccc1` (stereo not drawn), the cell number change was -8.83%. Moreover, the AC50 under setting [1] was 6510 nM [rising, single point]. Further, the AC50 under setting [2] is 5.8 nM [falling, full curve, poor fit].
In the case of `Cc1cccc(-c2noc(CCCC(=O)NCC3CCCO3)n2)c1` (stereo not drawn), the cell number change is -5.22%. In addition, the AC50 under setting [2] is 29100 nM [falling, single point].
Regarding `Cc1cccc(NC(=O)C(=O)NCCCN2CCOCC2)c1`, the cell number change is 11%.
For `CC(=O)Nc1ccc(NC(=O)CC2SC(=O)N(CC(=O)c3ccccc3)C2=O)cc1` (stereo not drawn), the cell number change is 29.5%. The AC50 under setting [2] is 20600 nM [rising, single point].
`CC(=O)C1=C(O)C(=O)N(CCC(=O)O)C1c1cccc(F)c1` (stereo not drawn): the cell number change was -18.7%.
On to `Cc1ccc(NC(=O)c2cc(S(=O)(=O)c3ccccc3)ccc2Cl)cc1`, for which the cell number change stood at 18.8%. For the same molecule, the AC50 under setting [2] was 2590 nM [rising, full curve].
Take `CCC(=O)Nc1ccc(N2CCCCC2)c(C(=O)Nc2ccc(OC)cc2)c1`: the cell number change amounted to 9.27%. Moreover, the AC50 under setting [1] is 651 nM [rising, single point].
As for `Cc1nnc(-c2ccc(Oc3ccc(C)c(C)c3)c([N+](=O)[O-])c2)o1`, the cell number change was 13.3%. In addition, the AC50 under setting [2] was 82 nM [rising, full curve, poor fit].
With `C=CCSc1nnc(NC(=O)CSc2nc(CCC)cc(=O)[nH]2)s1`, under setting [1], the AC50 was 580 nM [rising, single point].
Turning to `C=CCNC(=S)N/N=C(\C)c1ccc(OC)cc1`, the cell number change stood at 8.88%. Also, the AC50 under setting [2] was 6510 nM [falling, partial curve, poor fit].
With `CCN1CCN(CC(O)COc2ccc(C)c(C)c2)CC1` (stereo not drawn), the cell number change turned out to be 2.6%. For the same molecule, the AC50 under setting [2] was 65.1 nM [falling, full curve, poor fit].
Turning to `Cc1cc(NC(=O)C(C)SCC(=O)N(C)CC(=O)Nc2ccccc2C(F)(F)F)no1` (stereo not drawn), the cell number change is 22.9%.
Take `CCC(=O)Nc1ccc(S(=O)(=O)NCCc2ccccc2)cc1`: the cell number change was determined as 180%. In addition, the AC50 under setting [1] was 20600 nM [rising, single point].
Take `CCc1ccc(CN2CCN(C(=O)c3ccco3)CC2)cc1`: the cell number change was determined as 20.4%. Moreover, the concentration at half-maximal activity (AC50) under setting [2] is 291 nM [rising, partial curve, poor fit].
Regarding `CC(Sc1nc2sccc2c(=O)n1-c1ccccc1)C(N)=O` (stereo not drawn), the cell number change stood at 10.4%. The half-maximal activity concentration (AC50) under setting [2] was 580 nM [rising, single point].
Regarding `COc1ccc(CC(=O)NC(C)c2nnc(SCCOc3ccc(OC)cc3)n2C)cc1` (stereo not drawn), the cell number change is -44.3%. Moreover, under setting [1], the AC50 was 5800 nM [falling, full curve]. Further, under setting [2], the half-maximal activity concentration (AC50) was 6510 nM [falling, single point].
As to `COC(=O)c1cc2sccc2n1Cc1nc(-c2cccc(Cl)c2)oc1C`, the concentration at half-maximal activity (AC50) under setting [2] is 1840 nM [rising, partial curve].
Turning to `Cc1cc(OCc2cc(C(=O)N(C)C(C)c3ccccn3)no2)cc(C)c1Cl` (stereo not drawn), the cell number change is -28.1%. The concentration at half-maximal activity (AC50) under setting [2] was 29100 nM [falling, single point].
On to `CCOc1ccc(C(=O)Nc2cc(Cl)ccc2-n2cncn2)cc1OC`, for which the cell number change was determined as 3.18%. Also, under setting [1], the AC50 is 1840 nM [rising, partial curve, poor fit]. For the same molecule, under setting [2], the concentration at half-maximal activity (AC50) was 2590 nM [rising, full curve].
Regarding `CC(=O)Nc1ccc(S(=O)(=O)NCC(=O)NNC(=O)COc2ccccc2Cl)cc1`, the cell number change amounted to 36.2%. Besides, under setting [1], the AC50 was 11600 nM [rising, partial curve, poor fit].
Take `O=C(COC(=O)c1cccc(OC(F)F)c1)NC(=O)NC1CCCCC1`: the cell number change was -40.6%. The AC50 under setting [1] is 5800 nM [falling, partial curve].
Regarding `CCOC(=O)c1ccc(-n2ccnc2)c(NC(=O)c2ccc(C(C)(C)C)cc2)c1`, the cell number change amounted to 26.7%.
In the case of `C=CCNC(=O)C1CCC(C(=O)NCC=C)CC1` (stereo not drawn), the AC50 is, setting by setting: under setting [1], 291 nM [rising, full curve, poor fit]; under setting [2], 130 nM [rising, full curve, poor fit].
As for `COc1cc2nc(C)sc2cc1SC`, the cell number change is -6.14%. Besides, the concentration at half-maximal activity (AC50) under setting [1] is 2060 nM [rising, partial curve].
`COc1ccc(Cc2nc3ccc(C(=O)N(C)CCn4ccnc4)cc3o2)cc1OC`: the cell number change was -18.1%. Further, the AC50 under setting [1] was 130 nM [falling, full curve, poor fit].
As to `COC(=O)[C@]1(C)N[C@H](c2ccc(-c3ccc(Cl)c(Cl)c3)c(OC)c2)[C@@H]2C(=O)N(C)C(=O)[C@@H]21`, the cell number change is -20%.
As for `COc1cc(Cl)c(C)cc1NC(=O)CCNC(=O)c1ccco1`, the cell number change is 32.1%. Moreover, under setting [1], the AC50 is 103 nM [rising, full curve, poor fit].
Consider `CCOC(=O)c1cc(S(=O)(=O)NCCc2ccccc2)cn1C`, for which the AC50 under setting [2] was 20600 nM [rising, single point].
Regarding `CC1CC(C)(C)N(C(=O)CSc2ccc(-c3ccc(F)cc3)nn2)c2ccccc21` (stereo not drawn), the cell number change was -14.5%. Under setting [2], the AC50 is 326 nM [falling, full curve, poor fit].
For `O=C(Nc1nnc(-c2cccs2)s1)c1cccc(F)c1`, the cell number change amounted to 18%.
On to `COc1ccc(-c2cc(C(=O)NC(Cc3c[nH]c4ccccc34)C(=O)O)c(C)o2)cc1OC` (stereo not drawn), for which the cell number change was -3.26%. For the same molecule, under setting [1], the AC50 was 6510 nM [rising, single point]. Further, the AC50 under setting [2] was 6510 nM [rising, single point].
As for `CCC(OC(=O)C(CC(C)C)NC(=O)c1ccccc1)C(=O)Nc1nnc(C)s1` (stereo not drawn), the cell number change is 7.46%. For the same molecule, the AC50 under setting [1] was 920 nM [rising, partial curve].
With `CC(C)(C)C1CCC(OCC(O)CN2CCCC2)CC1` (stereo not drawn), the cell number change is -66.9%. Besides, the concentration at half-maximal activity (AC50) under setting [1] is 29100 nM [falling, single point].
On to `CN(CC(=O)Nc1cccc(F)c1)C(=O)c1ccc(COc2ccccc2)o1`, for which the cell number change was 24.5%. Besides, the AC50 under setting [1] is 3260 nM [rising, single point].
For the molecule `CC(C)[C@H](NC(=O)c1ccc(C(C)(C)C)cc1)C(=O)Nc1nnc(C2CC2)s1`, the cell number change is -12.3%. Besides, the concentration at half-maximal activity (AC50) under setting [2] was 6510 nM [falling, partial curve, poor fit].
With `Cn1cccc1C1NC(=O)c2c(sc3c2CCC(C(C)(C)C)C3)N1` (stereo not drawn), the cell number change was -28.6%. For the same molecule, the half-maximal activity concentration (AC50) under setting [1] was 731 nM [falling, full curve, poor fit]. Further, under setting [2], the AC50 is 6510 nM [falling, single point].
Take `O=C1C2CC(O)CN2C(=O)N1c1ccccc1` (stereo not drawn): the cell number change is -24.3%. For the same molecule, the AC50 under setting [1] was 103 nM [falling, full curve, poor fit]. The half-maximal activity concentration (AC50) under setting [2] was 146 nM [falling, full curve, poor fit].
Take `COc1ccc(CNc2nc(NCc3ccc(OC)c(OC)c3)n(C(=O)c3cccs3)n2)cc1OC`: the cell number change is -18.1%. Further, under setting [2], the AC50 was 411 nM [rising, full curve].
Consider `CCOC(=O)c1c(C)[nH]c(C(=O)NCc2ccccc2OC)c1C`, for which the cell number change is -6.14%. For the same molecule, the AC50 under setting [2] was 1640 nM [rising, full curve].
Consider `COc1ccc(Nc2ncccc2C(=O)NCc2ccccc2)cc1`, for which the AC50 under setting [1] is 461 nM [rising, single point].
Turning to `Nc1nonc1-c1noc(COc2ccccc2Cl)n1`, the cell number change amounted to 31%. In addition, under setting [1], the AC50 was 29100 nM [rising, single point].
Take `NC(=O)C1CCN(Cc2ccc(OCc3ccccc3)cc2)CC1`: the cell number change was 17.1%. Under setting [2], the AC50 was 1300 nM [rising, full curve].
Take `COC(=O)CSc1nc(N)nc(C)c1Br`: the cell number change is -8.19%. Also, the AC50 under setting [2] was 29100 nM [rising, single point].
Regarding `COc1ccc(S(=O)(=O)NCCSC(C)(C)C)c(Cl)c1Cl`, the cell number change is 9.89%.
As for `COc1cccc(C(=O)Nc2nnc(C3CCCO3)s2)c1` (stereo not drawn), the concentration at half-maximal activity (AC50) under setting [2] is 731 nM [falling, full curve].
For the molecule `CCN(CC(=O)NCc1cccs1)C(=O)c1cccc(S(=O)(=O)N2CCc3ccccc32)c1`, the cell number change is 23.9%.
Consider `CC(=O)N1CCN(c2ccc(Nc3nc(C)nc4c3oc3ccccc34)cc2)CC1`, for which the cell number change is -2.42%. Further, the half-maximal activity concentration (AC50) under setting [2] was 29100 nM [rising, partial curve, poor fit].
Regarding `CCCCCCCC[n+]1cccc(C(=O)N(CC)CC)c1`, the cell number change was 0.549%. Moreover, the AC50 under setting [2] was 259 nM [falling, partial curve, poor fit].
In the case of `Cc1ccc(CN(c2ccc(C(=O)NCc3ccccn3)cc2)S(C)(=O)=O)cc1`, under setting [1], the AC50 was 2910 nM [rising, single point].
